Screen size: about 78,000 compounds; about 1,800 (2.3%) were called active. This list was built around the results that the source calls inconclusive (neither active nor inactive); the mix of calls is not that of the screen. No stated cut-off is given here; in the data, active means inhibition above about 30%; inconclusive means mostly about 10% to 28%; inactive means weaker than that. More than one record can exist for a structure, and the calls need not agree.
Molecular target: Interleukin-1 receptor-like 1 (Homo sapiens) (UniProt Q01638)
Test: blocks human ST2 binding to IL-33, primary screen, biochemical, AlphaLISA (AID 1259354)
Details: AlphaLISA ST2-Fc/biotin-IL-33 interaction, 1 h; at 17 µM, active compounds read high

Sequences of proteins named here, by UniProt entry; tags and fusion partners are left off. A change or cut given only in a name is not applied to a line headed by its entry.
UniProt Q01638: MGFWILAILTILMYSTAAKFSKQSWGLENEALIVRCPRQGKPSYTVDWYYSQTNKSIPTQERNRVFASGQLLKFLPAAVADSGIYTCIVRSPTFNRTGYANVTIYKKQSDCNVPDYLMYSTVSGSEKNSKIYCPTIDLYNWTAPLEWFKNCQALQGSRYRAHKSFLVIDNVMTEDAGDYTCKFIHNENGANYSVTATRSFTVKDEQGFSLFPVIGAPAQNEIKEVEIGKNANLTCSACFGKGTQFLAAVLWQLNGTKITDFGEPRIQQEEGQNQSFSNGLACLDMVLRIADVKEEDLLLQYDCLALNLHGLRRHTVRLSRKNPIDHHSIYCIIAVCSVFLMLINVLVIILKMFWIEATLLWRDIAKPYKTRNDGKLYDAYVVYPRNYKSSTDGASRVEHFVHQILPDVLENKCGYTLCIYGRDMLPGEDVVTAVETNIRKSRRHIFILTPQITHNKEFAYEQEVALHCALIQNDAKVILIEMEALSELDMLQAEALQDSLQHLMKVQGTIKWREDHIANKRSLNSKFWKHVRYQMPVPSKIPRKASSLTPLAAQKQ

SMILES	inhibition
N#C/C(=C\c1ccc(I)cc1)c1nc(-c2ccc([N+](=O)[O-])cc2)cs1	inactive
Cc1oc(-c2ccccc2Cl)nc1CSCC(=O)NCc1ccc2c(c1)OCO2	inactive
CCOC(=O)C1C(=O)C=C(c2ccc(C)cc2)CC1c1ccco1 (stereo not given)	inconclusive: 10%
CN1CC2=C(OC(N)=C(C#N)C2c2ccc(F)cc2)/C(=C/c2ccc(F)cc2)C1 (stereo not given)	inactive
CCCn1nnc2cc(C(=O)NCCC(=O)Nc3ccc(S(N)(=O)=O)cc3)ccc21	inconclusive: 11%
O=[N+]([O-])c1cccc(-c2ccccc2)c1	inconclusive: 24%
Cc1cc(N2CCOCC2)nc(N2CCN(S(=O)(=O)c3cccc(F)c3)CC2)n1	inactive
Cc1ccsc1/C=C1\SC(N2CCCCC2)=NC1=O	inconclusive: 17%
CCN(CC)c1ccc(/C=C2/C(=O)c3ccc(C(=O)O)cc3C2=O)cc1	inconclusive: 19%
CSc1ccc(CN2CCN(c3ncccn3)CC2)cc1	inactive
COc1ccc(C(=O)Nc2ccc(Nc3nc(C)cc(Nc4ccccc4)n3)cc2)cc1OC	inactive
O=S(=O)(NCCc1ccccc1)c1cccc2nsnc12	inconclusive: 11%
COCCN1CCN(C(=O)CC2C(=O)NCCN2Cc2ccoc2)CC1 (stereo not given)	inactive
Cc1cc(NC(=O)c2ccccc2Cl)nc2c1c(=O)oc1ccccc12	inactive
CC(=O)OCC(=O)[C@@]1(O)CC[C@H]2[C@@H]3CCC4=CC(=O)CC[C@]4(C)[C@H]3C(=O)C[C@@]21C	inconclusive: 20%
O=C(CCCn1c(=O)[nH]c2ccsc2c1=O)N1CCN(c2ccccn2)CC1	inconclusive: 12%
Cc1nc2nc(SCC(=O)NC3CC3)nn2c(C)c1Cc1ccccc1Cl	inconclusive: 17%
CC(C)CC(=O)Nc1ccnn1C1CCN(C(=O)c2cncc(F)c2)CC1	inconclusive: 11%
Cc1cc(C)nc(NC(=O)c2ccccc2F)c1	active: 30%
O=[N+]([O-])c1ccc(N2CCN(c3ccccc3)CC2)c2ncccc12	active: 32%

SMILES	inhibition
Cc1nc2c(-c3ccc(F)cc3)c(C)nn2c(C)c1CCC(=O)NCc1ccco1	inconclusive: 13%
c1ccc(C2=NCCn3cccc32)cc1	inconclusive: 10%
O=[N+]([O-])c1cccc(C(Nc2ccccn2)c2ccc3cccnc3c2O)c1 (stereo not given)	inconclusive: 25%
C=CCn1c(CCNC(=O)Cc2ccccc2)nc2ccccc21	inconclusive: 13%
O=C(Nc1cccc2c1C(=O)c1ccccc1C2=O)c1ccc(Cl)s1	inconclusive: 24%
COc1ncc(C(=O)N2CCCC(COc3cccc(F)c3)C2)cn1 (stereo not given)	inactive
CC(C)c1ccc(Nc2c(-c3ccccc3)nc3cnccn23)cc1	inactive
CC1CC(C)CN(S(=O)(=O)c2cc(Cl)ccc2Cl)C1 (stereo not given)	inactive
CNS(=O)(=O)c1ccc(CCc2nc(CCc3ccccc3)n[nH]2)cc1	inconclusive: 24%
Cc1ccc2nc(COc3cccc(NC(=O)c4cccc(Br)c4)c3)cc(=O)n2c1	inactive
Cc1[nH]cnc1CN1CCC(N2CCC(C(=O)NCC3CCCO3)CC2)CC1 (stereo not given)	inactive
Cc1ccccc1C(=O)Nc1cc2cccc([N+](=O)[O-])c2oc1=O	inactive
O=C(NCCCN1CCCC1)c1cc(=O)[nH]c2ccc(S(=O)(=O)N3CCCC3)cc12	inactive
Cc1ccc(C)c(NC(=O)CSc2cn(CCNC(=O)c3ccc(F)cc3)c3ccccc23)c1	inconclusive: 12%
O=C1Nc2ccccc2Oc2cc([N+](=O)[O-])cc(Oc3ccc(Br)cc3)c21	inconclusive: 17%
COc1ccc(N2CCN(c3cc(N4CCN(C)CC4)ccc3[N+](=O)[O-])CC2)cc1	active: 44%
C=C(C)CN(C)Cc1ccc(C(=O)Nc2ccccc2Cl)cc1	inconclusive: 23%
COc1ccc(-n2nc3c(c2NC(=O)c2ccc(OC)cc2OC)CS(=O)C3)cc1 (stereo not given)	inactive
COc1ccc(C2C(C(=O)Nc3cccnc3)=C(C)Nc3ncnn32)cc1 (stereo not given)	inconclusive: 10%
Cc1ccc(C2=N/C(=C\c3ccccc3I)C(=O)O2)cc1[N+](=O)[O-]	inconclusive: 15%

SMILES	inhibition
C=CCc1c(C)nc2nc(SCC(=O)Nc3ccccc3Cl)nn2c1C	inactive
O=C1N/C(=C\c2ccc(O)c(Br)c2)C(=O)N1Cc1ccc(Cl)cc1	inconclusive: 11%
O=[N+]([O-])c1cccc(C=Nc2ccc(S(=O)(=O)Nc3ccccn3)cc2)c1	inactive
CC1=CC(C)(C)N(C(=O)Cc2ccccc2)c2ccccc21	inconclusive: 21%
Nc1ccc(-c2nc3ccc(-c4ccc5nc(-c6ccc(N)cc6)[nH]c5c4)cc3[nH]2)cc1	inconclusive: 10%
COc1ccc(C2C3=C(CCCC3=O)Nc3nc(SCc4ccccc4)nn32)cc1OC (stereo not given)	inconclusive: 14%
O=C(NCCCc1nc2ccccc2[nH]1)C1CCCCC1	inactive
CS(=O)(=O)Nc1ccc(Cl)cc1C(=O)c1ccccc1	inactive
COc1ccccc1-c1ccnc(N[C@H]2CO[C@H]3[C@@H]2OC[C@@H]3NC(=O)C2CCCCC2)n1	inactive
CNCC[C@H](Oc1ccc(C(F)(F)F)cc1)c1ccccc1	inconclusive: 10%
Cc1ccc(NCC(O)Cn2c(C)c(C)c3ccccc32)cc1 (stereo not given)	active: 36%
C=CCc1cccc(C=Nc2ccc(Br)cc2)c1O	active: 39%
Cc1cc(C)cc(OCC(=O)Nc2ccccc2I)c1	inconclusive: 11%
Cn1c(=O)c2c(nc(OCCc3ccccc3)n2Cc2ccccc2F)n(C)c1=O	active: 30%
Cc1cc2c(cc1C)NC(c1ccc(Cl)s1)C1=C(CC(C)(C)CC1=O)N2 (stereo not given)	inconclusive: 23%
COc1ccc(CNC(=O)c2ccc(CN3CCc4ccccc4C3)cc2)cc1	inactive
O=C(CSc1nc2ccc(NC(=O)c3ccccc3[N+](=O)[O-])cc2s1)Nc1ccccc1	inconclusive: 17%
CN1C(=O)N(Cc2ccccc2)C2(CCN(Cc3cccc(C(F)(F)F)c3)CC2)C1=O	inconclusive: 21%
O=C(c1ccc([N+](=O)[O-])cc1)c1ccc(Cl)c(Cl)c1	active: 58%
COc1cc(/C=C/C2=NC(=O)C(C)(C)O2)ccc1O	inconclusive: 16%

Quoted at random: 4 compounds from above
SMILES	inhibition
CC1=CC(C)(C)N(C(=O)Cc2ccccc2)c2ccccc21	inconclusive: 21%
CN1C(=O)N(Cc2ccccc2)C2(CCN(Cc3cccc(C(F)(F)F)c3)CC2)C1=O	inconclusive: 21%
COc1cc(/C=C/C2=NC(=O)C(C)(C)O2)ccc1O	inconclusive: 16%
O=[N+]([O-])c1cccc(C=Nc2ccc(S(=O)(=O)Nc3ccccn3)cc2)c1	inactive

From PubChem BioAssay AID1259354 (Paczesny and Yang Labs, IUPUI and University of Michigan, 2018)
